Test results: paper PMC6165859
Read-outs that look alike come from different tables or passages of the source. No constants are given. Whether binding was seen depends on the method and setting. In cells and extracts the contact can be indirect. Some binding calls cover weakened binding; strength is not graded here.

Chains of the proteins cited; added tags and fusions are not shown. Lines headed by an entry give the natural chain unless they say otherwise; changes in a name come on top. A line that says so, or that is headed by a name, gives the form on record, which may keep a tag or linker. Residues count along the entry.
UniProt Q9H0Y0: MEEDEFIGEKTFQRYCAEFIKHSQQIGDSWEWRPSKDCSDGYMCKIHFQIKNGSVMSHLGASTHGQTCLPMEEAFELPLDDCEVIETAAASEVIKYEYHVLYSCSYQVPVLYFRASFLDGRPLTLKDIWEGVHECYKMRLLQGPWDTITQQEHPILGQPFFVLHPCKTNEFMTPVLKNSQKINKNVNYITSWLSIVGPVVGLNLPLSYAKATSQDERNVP
Flag-tagged ATG10^ΔC44 (Q9H0Y0, form named): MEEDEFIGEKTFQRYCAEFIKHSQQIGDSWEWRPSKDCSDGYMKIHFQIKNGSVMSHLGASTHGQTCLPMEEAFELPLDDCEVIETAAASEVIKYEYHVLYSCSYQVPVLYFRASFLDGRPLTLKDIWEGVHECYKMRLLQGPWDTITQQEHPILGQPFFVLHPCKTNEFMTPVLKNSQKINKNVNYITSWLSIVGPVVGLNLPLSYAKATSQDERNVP
Flag-tagged ATG10S (shorter isoform of autophagy-related 10 protein) (Q9H0Y0, form named): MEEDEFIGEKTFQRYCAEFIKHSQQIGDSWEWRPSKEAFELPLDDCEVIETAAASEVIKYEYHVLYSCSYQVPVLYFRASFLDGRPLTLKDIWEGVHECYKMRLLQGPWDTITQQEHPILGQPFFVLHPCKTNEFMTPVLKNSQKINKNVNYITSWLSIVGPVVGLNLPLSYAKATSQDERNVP
UniProt P13473, residues 29-410: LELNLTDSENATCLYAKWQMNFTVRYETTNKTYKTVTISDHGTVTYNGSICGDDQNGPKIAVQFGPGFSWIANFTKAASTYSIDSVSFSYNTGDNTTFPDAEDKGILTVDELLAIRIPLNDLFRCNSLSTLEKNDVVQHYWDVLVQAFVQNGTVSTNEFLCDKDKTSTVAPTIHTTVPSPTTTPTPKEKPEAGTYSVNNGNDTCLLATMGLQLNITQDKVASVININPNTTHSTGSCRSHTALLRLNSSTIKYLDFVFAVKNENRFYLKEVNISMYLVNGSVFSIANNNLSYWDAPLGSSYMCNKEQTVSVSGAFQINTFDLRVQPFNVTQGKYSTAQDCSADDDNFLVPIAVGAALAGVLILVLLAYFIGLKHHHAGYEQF
HCV NS3 (HCV 2a virion, J6/JFH/JC) (Q99IB8, residues 1031-1661): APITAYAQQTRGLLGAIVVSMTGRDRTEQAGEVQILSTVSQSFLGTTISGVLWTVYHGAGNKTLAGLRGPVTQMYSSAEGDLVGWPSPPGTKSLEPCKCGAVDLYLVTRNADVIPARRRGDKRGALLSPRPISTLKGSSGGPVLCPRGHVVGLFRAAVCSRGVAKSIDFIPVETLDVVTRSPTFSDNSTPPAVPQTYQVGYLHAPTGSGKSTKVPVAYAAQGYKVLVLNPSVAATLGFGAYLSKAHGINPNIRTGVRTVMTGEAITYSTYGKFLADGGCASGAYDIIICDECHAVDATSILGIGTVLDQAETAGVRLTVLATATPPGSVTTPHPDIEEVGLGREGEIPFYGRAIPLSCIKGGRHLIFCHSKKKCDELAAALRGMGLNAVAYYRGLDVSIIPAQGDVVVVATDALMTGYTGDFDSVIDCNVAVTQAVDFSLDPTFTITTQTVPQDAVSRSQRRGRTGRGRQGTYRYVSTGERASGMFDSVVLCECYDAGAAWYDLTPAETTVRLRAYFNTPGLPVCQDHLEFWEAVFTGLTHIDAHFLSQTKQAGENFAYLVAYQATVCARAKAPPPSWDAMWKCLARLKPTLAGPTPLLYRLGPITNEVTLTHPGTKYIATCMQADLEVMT
HCV NS4B (HCV 2a virion, J6/JFH/JC) (Q99IB8, residues 1716-1976): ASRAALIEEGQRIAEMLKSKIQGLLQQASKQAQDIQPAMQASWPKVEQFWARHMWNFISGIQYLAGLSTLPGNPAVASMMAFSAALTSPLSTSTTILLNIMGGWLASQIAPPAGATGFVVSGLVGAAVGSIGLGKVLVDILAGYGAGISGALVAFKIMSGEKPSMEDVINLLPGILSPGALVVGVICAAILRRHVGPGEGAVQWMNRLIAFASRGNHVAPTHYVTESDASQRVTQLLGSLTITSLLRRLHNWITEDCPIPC

Experiments:
[1] = target: Flag-tagged ATG10^C44S/C135S (human) (UniProt Q9H0Y0); experiment: co-IP
[2] = target: Flag-tagged ATG10^ΔC44 (human) (UniProt Q9H0Y0); experiment: co-IP
[3] = target: Flag-tagged ATG10^C135S (human) (UniProt Q9H0Y0); experiment: co-IP
[4] = target: Flag-tagged ATG10^C44A (human) (UniProt Q9H0Y0); experiment: co-IP
[5] = target: Flag-tagged ATG10^C44S (human) (UniProt Q9H0Y0); experiment: co-IP
[6] = target: Flag-tagged ATG10S (shorter isoform of autophagy-related 10 protein) (human) (UniProt Q9H0Y0); experiment: co-IP
[7] = target: LAMP2 (lysosomal associated membrane protein 2) (human (endogenous in HepG2)) (UniProt P13473); experiment: co-IP
[8] = target: Flag-tagged ATG10^C44S/C135S (human) (UniProt Q9H0Y0); experiment: co-IP; HepG2 HCV subgenomic replicon cells transfected with Flag-tagged ATG10 mutants; non-denaturing lysis buffer; anti-Flag, protein A/G plus agarose; immunoblot
[9] = target: Flag-tagged ATG10^ΔC44 (human) (UniProt Q9H0Y0); experiment: as above
[10] = target: Flag-tagged ATG10^C135S (human) (UniProt Q9H0Y0); experiment: as above
[11] = target: Flag-tagged ATG10^C44A (human) (UniProt Q9H0Y0); experiment: as above
[12] = target: Flag-tagged ATG10^C44S (human) (UniProt Q9H0Y0); experiment: as above
[13] = target: LAMP2 (lysosomal associated membrane protein 2) (human (endogenous in HepG2)) (UniProt P13473); experiment: co-IP; remark: listed apart in the source

Measured: binding

HCV NS3 (HCV 2a virion, J6/JFH/JC) (from UniProt Q99IB8 1031-1661) (enzyme)
binds: [1] | [2] | [3] | [4] | [5] | [6]

HCV NS4B (HCV 2a virion, J6/JFH/JC) (from UniProt Q99IB8 1716-1976)
binds: [1] | [2] | [3] | [4] | [5] | [6]

P62 (sequestosome 1) (from UniProt Q13501 1-440)
binds: [1] | [7] | [2] | [3] | [4] | [5] | [6]

B1: IL28A (interleukin-28A) (protein, UniProt Q8IZJ0 26-200)
chain: VPVARLHGALPDARGCHIAQFKSLSPQELQAFKRAKDALEESLLLKDCRCHSRLFPRTWDLRQLQVRERPMALEAELALTLKVLEATADTDPALVDVLDQPLHTLHHILSQFRACIQPQPTAGPRTRGRLHHWLYRLQEAPKKESPGCLEASVTFNLFRLLTRDLNCVASGDLCV
binds: [8] | [9] | [10] | [11] | [12] | [13]
